{
  "source": "PubChem BioAssay AID540276",
  "about": "(National Center for Advancing Translational Sciences (NCATS), 2011)",
  "note": "Out of some 300,000 compounds screened, about 5,400 (1.8%) were called active. The inconclusive results got no clear call from the source; some entries with a clear call stand among them for comparison. Calls come from the whole dose curve; tested in HEK293 cells. Where the call is inconclusive, the potency comes from a doubtful curve fit. Potency is the fitted concentration of half-maximal effect.",
  "data": [
    {"assay": "qHTS for inhibitors of binding or entry into cells for Marburg Virus", "conditions": "Marburg virus pseudotyped entry inhibition, cell reporter; series mostly up to 37.8 µM", "values": [
      {"smiles": "COC(=O)c1c(NC(=O)c2ccccc2)sc(C(N)=O)c1C", "Potency": "inactive"},
      {"smiles": "Cc1cc(-c2ccc(Cl)s2)n[nH]1", "Potency": "inconclusive: 5.62 µM [inhibitor, single point]"},
      {"smiles": "Clc1ccc(OCc2cnc(Cl)s2)cc1", "Potency": "inactive"},
      {"smiles": "CCCCOCCCNCC(=O)Nc1ccc(S(N)(=O)=O)cc1", "Potency": "inactive"},
      {"smiles": "Cc1ccccc1CS(=O)(=O)Cc1ccc(C(=O)NCCCN2CC(C)CC(C)C2)o1", "note": "(stereo unspecified)", "Potency": "inconclusive: 6.31 µM [inhibitor, partial curve, poor fit]"},
      {"smiles": "O=C(/C=C\\c1ccc2c(c1)OCO2)NC1(C(=O)Nc2ccc3c(c2)OCO3)CCCCC1", "Potency": "inconclusive: 0.631 µM [activator, partial curve, poor fit]"},
      {"smiles": "CCCC(c1nnnn1CS(=O)(=O)c1ccc(C)cc1)N1CCN(c2ccccc2)CC1", "note": "(stereo unspecified)", "Potency": "inconclusive: 14.1 µM [inhibitor, partial curve, poor fit]"},
      {"smiles": "O=C(c1ccc(-c2ccccc2)cc1)N1CCCC1", "Potency": "inactive"},
      {"smiles": "CC(=O)C1=C(C)NC(SCC(=O)c2ccc(F)cc2)=C(C#N)C1c1ccco1", "note": "(stereo unspecified)", "Potency": "inconclusive: 0.73 µM [inhibitor, full curve, poor fit]"},
      {"smiles": "Cc1ccc(C)c(NC(=O)CCC(=O)NNC(=O)c2cccs2)c1", "Potency": "inconclusive: 3.16 µM [activator, full curve, poor fit]"},
      {"smiles": "COc1ccc(NC(=O)CCC(=O)N(Cc2ccc(OC)c(OC)c2)c2nccs2)cc1", "Potency": "inconclusive: 2.82 µM [activator, partial curve, poor fit]"},
      {"smiles": "CN(C)CCn1c2c(c(SCC(=O)Nc3cccc4ccccc34)nc1=O)CCCC2", "Potency": "inconclusive: 14.1 µM [inhibitor, single point]"},
      {"smiles": "CCOC(=O)C1CCN(CC(=O)NC(=O)NC2CCCCC2)CC1", "Potency": "inactive"},
      {"smiles": "O=C(NCCc1ccccc1)C(=O)c1c(-c2ccccc2)cc2ccccn12", "Potency": "inactive"},
      {"smiles": "CCOC(=O)/C(=C/c1c(C)n(C)c2ccc([N+](=O)[O-])cc12)C(C)=O", "Potency": "inconclusive: 14.1 µM [inhibitor, single point]"},
      {"smiles": "CC(C)Oc1ccc(C(=O)N2CCCc3ccccc32)cc1", "Potency": "inactive"},
      {"smiles": "CCNC(=S)N/N=C/c1ccc(OCc2ccc(C(=O)OC)cc2)cc1", "Potency": "inconclusive: 0.562 µM [inhibitor, full curve, poor fit]"},
      {"smiles": "CC(=O)c1coc2ccc(OCCN3CCCCC3)cc12", "Potency": "inactive"},
      {"smiles": "CCc1cccc(NS(=O)(=O)c2ccc3c(c2)n(C)c(=O)n3C)c1", "Potency": "inconclusive: 28.2 µM [inhibitor, single point]"},
      {"smiles": "COc1ccc(CCNc2nc(-c3ccc(NC(C)=O)cc3)cs2)cc1OC", "Potency": "inconclusive: 11.2 µM [inhibitor, single point]"},
      {"smiles": "N/C(=N\\O)c1ccc(N2CCN(c3ncccc3C(F)(F)F)CC2)nc1", "Potency": "inconclusive: 3.16 µM [activator, single point]"},
      {"smiles": "COc1cc2c(cc1NC(=O)COC(=O)[C@@H](NS(=O)(=O)c1ccccc1)C(C)C)oc1ccccc12", "Potency": "inconclusive: 25.1 µM [inhibitor, single point]"},
      {"smiles": "C/C(=N\\NC(=O)c1csc(C)c1C)c1ccc(C)s1", "Potency": "inactive"},
      {"smiles": "Nc1nc(CSc2ncccn2)nc(Nc2ccccc2)n1", "Potency": "inactive"},
      {"smiles": "COc1cccc(CCNC(=O)CC2C(=O)NCCN2Cc2ccc(Cl)c(F)c2)c1", "note": "(stereo unspecified)", "Potency": "inconclusive: 1.12 µM [inhibitor, partial curve, poor fit]"},
      {"smiles": "C=CCOc1c(Cl)cc(CNc2ccc3[nH]c(=O)[nH]c3c2)cc1OC", "Potency": "inconclusive: 1.26 µM [inhibitor, full curve, poor fit]"},
      {"smiles": "CCN(CC)C(=O)Cn1cc(C(=O)C(=O)N2CCc3ccccc32)c2ccccc21", "Potency": "inconclusive: 7.94 µM [inhibitor, partial curve, poor fit]"},
      {"smiles": "CCOc1ncccc1C(=O)NCC(c1ccco1)N1CCCCC1", "note": "(stereo unspecified)", "Potency": "inconclusive: 3.16 µM [activator, single point]"},
      {"smiles": "CCOC(=O)c1sc(NC(=O)c2ccc(S(=O)(=O)N(C)C)cc2)cc1C", "Potency": "inactive"},
      {"smiles": "Cc1ccc2nc(SCC(=O)c3ccc4c(c3)OCO4)[nH]c2c1", "Potency": "inactive"},
      {"smiles": "O=C(Cn1cc(C(=O)c2cccs2)c2ccccc21)NC1CCCCC1", "Potency": "inactive"},
      {"smiles": "Cc1ccc(NC(=O)Cc2n[nH]c(=O)c3ccccc23)cc1S(=O)(=O)N1CCCCCC1", "Potency": "inconclusive: 35.5 µM [inhibitor, partial curve, poor fit]"},
      {"smiles": "Cc1ccc(NS(=O)(=O)c2ccc(OCC(=O)NCc3cccnc3)cc2)cc1", "Potency": "inactive"},
      {"smiles": "O=S(=O)(c1ccc(Cl)cc1)c1nc(-c2ccccc2F)oc1NCc1ccccc1", "Potency": "inconclusive: 12.6 µM [inhibitor, partial curve, poor fit]"},
      {"smiles": "COc1ccccc1OCCNC(=O)Cc1ccc(Cl)c(Cl)c1", "Potency": "inconclusive: 0.112 µM [activator, full curve, poor fit]"},
      {"smiles": "Cc1ccc(CN(C)C(=O)CC2C(=O)NCCN2CC2CCCCC2)cc1", "note": "(stereo unspecified)", "Potency": "inactive"},
      {"smiles": "CCOc1ccc(NC(=O)CCn2c(=O)[nH]c3ccsc3c2=O)cc1", "Potency": "inactive"},
      {"smiles": "COc1ccc(NC(=O)C2=CC(c3ccc4c(c3)OCO4)=NS(=O)(=O)N2C)cc1OC", "Potency": "inactive"},
      {"smiles": "CCN(CC)c1ccc(/C=N/NS(=O)(=O)c2ccc(C)c([N+](=O)[O-])c2)cc1", "Potency": "inactive"},
      {"smiles": "C=CCc1cccc2ccc(=O)oc12", "Potency": "inactive"},
      {"smiles": "COc1ccc(O[C@H]2C=C[C@@H](c3ccccc3)O[C@H]2CON=C[C@@H](C)[C@H](OCc2ccccc2)C(C)C)cc1", "Potency": "inconclusive: 0.006 µM [inhibitor, full curve, poor fit]"},
      {"smiles": "O=C(NNC(=O)c1ccccn1)c1cccc([N+](=O)[O-])c1", "Potency": "inactive"},
      {"smiles": "O=C(CSCc1ccccc1Cl)N/N=C/c1ccco1", "Potency": "inactive"},
      {"smiles": "COc1ccccc1COCC(O)CNCC1(N2CCCCC2)CCCCC1", "note": "(stereo unspecified)", "Potency": "inconclusive: 20.6 µM [inhibitor, partial curve]"},
      {"smiles": "CCc1cc[n+](-c2nc3ccccc3nc2[N-]S(=O)(=O)c2ccc(Br)s2)cc1", "Potency": "inactive"},
      {"smiles": "COc1ccc(C(=O)NC(=S)Nc2cccc(Cl)c2N2CCOCC2)cc1[N+](=O)[O-]", "Potency": "inconclusive: 29.1 µM [inhibitor, single point]"}
    ]}
  ]
}
